Test results as given in PubChem BioAssay AID1794845 (National Center for Advancing Translational Sciences (NCATS), 2023).
The whole screen tested about 6,900 compounds, of which fewer than 10 were called active. Calls come from the whole dose curve; as a rule, active = well fitted curve in the direction sought with a large enough effect; inconclusive = small, poorly fitted or top-dose-only effect, or another doubt; inactive = no such curve, though single readings can be large or run the other way. The list shows a part of the results.

Protein sequences, listed by entry. Tags and fused reporters are not part of them. Lines headed by an entry give the natural chain unless they say otherwise; changes in a name come on top.
UniProt C7C422: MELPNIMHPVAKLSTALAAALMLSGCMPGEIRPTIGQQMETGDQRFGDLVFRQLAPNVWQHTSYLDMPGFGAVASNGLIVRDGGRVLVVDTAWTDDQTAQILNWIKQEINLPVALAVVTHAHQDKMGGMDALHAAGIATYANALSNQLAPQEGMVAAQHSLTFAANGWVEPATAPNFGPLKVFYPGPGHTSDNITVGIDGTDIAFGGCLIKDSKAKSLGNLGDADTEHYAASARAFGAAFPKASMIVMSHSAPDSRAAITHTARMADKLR

Biological target: Metallo-beta-lactamase type 2 (Klebsiella pneumoniae) (UniProt C7C422)
Experiment: qHTS to identify inhibitors of the New Delhi Metallo-beta-lactamase (NDM): primary screen against the NCATS Gemini Collection; note: % of control where 0% means no effect
Conditions: NDM-1 enzyme, meropenem hydrolysis, absorbance 300 nm; at 38.4 µM (top of the series) unless noted
Outline: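 NDM-1 at 2 nM final in 50 mM HEPES pH 7.0, 1 uM ZnSO4, 0.01% Tween20, preincubated >30 min with compound. Meropenem 50 uM final added; absorbance at 300 nm after 30 min.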

Activity % (negative = inhibition), inactive:
O=C(Cc1ccsc1)N1CCC2(CC1)N=C(c1ccccc1)NO2 5.75%, C[S+](=O)([O-])NCCNC(=O)c1cccc(-c2ccsc2)c1 4.94% [at 57.5 µM], COC(=O)[C@@H]1Cc2ncn(Cc3ccc(Cl)cc3)c2CN1S(=O)(=O)c1cccs1 33.4%, COc1ccc(CN2CCc3ncc(C(=O)NCc4ccc5c(c4)OCO5)n3CC2)cn1 2.05% [at 57.5 µM], O=S(=O)(c1cccnc1)N1CCC(N(Cc2cccnc2)C2CCOCC2)CC1 5.87%, CCCNC(=O)N(C1CCOCC1)C1CCN(C(=O)CCC(=O)c2ccc(F)cc2)CC1 6.77%, O=C(CCC[C@@H]1[C@H]2CCCN3CCC[C@@H](CN1C(=O)c1ccccc1F)[C@@H]23)N1CCOCC1 -1.64%, O=C(NCc1ccc(Cl)cc1)C1CC(=O)N(c2n[nH]c3cccc(F)c23)C1 (stereo not drawn) -0.524%, Cc1ccc(NC(=O)N2CCC(n3c(C)cnc3-c3cccnc3)C2)cc1C (stereo not drawn) 6.82%, O=C1NC[C@@H](CCC(=O)N2CCc3ccccc32)N2C[C@@H](NS(=O)(=O)c3ccccc3)C[C@@H]12 0.275%, Cc1cc(C)c(CNC(=O)c2cc(-c3cnn(C)c3C)cc3c2OCCN3C)c(=O)[nH]1 15.4% [at 57.5 µM], CC(=O)NC1CC2(CCN(C(=O)C3CCN(C)CC3)CC2)c2ccccc21 (stereo not drawn) 2.68%, O=C(C1CCCC1)N1CC2(CCN(Cc3ccccn3)C2)OCc2ccccc21 (stereo not drawn) -3.83%, COCC1CN(C)CC12CCN(Cc1ccc(Br)o1)CC2 (stereo not drawn) 4.1%, COC(=O)[C@@H]1Cc2ncn(Cc3ccc(Cl)cc3)c2CN1Cc1cccnc1 3.48% [at 57.5 µM], Cc1noc(C)c1-c1cc2c(cc(C)n2C)c(N2CCN(c3ccccn3)CC2)n1 7.74% [at 57.5 µM], Cc1noc(C)c1[S+](=O)([O-])N1CCC2(CC1)Cc1ccccc1NC2=O 12%, CCCC1(CO)CCCN(Cc2cnn(-c3cccc(F)c3)c2)C1 (stereo not drawn) -1.05%, CC(C)NC(=O)c1ccccc1OCC1CCCN(Cc2ccncc2F)C1 (stereo not drawn) -9.41%, Cn1nc(C2CC2)cc1NC(=O)C(C)(C)C 3.86% [at 57.5 µM], Cc1noc2c(NC3CCOCC3)cc(-c3ccsc3)nc12 33.1% [at 57.5 µM], O=C(NCc1ccco1)Nc1cccc(-c2ccc(N3CCCC3)nn2)c1 28.6%, COc1ccc(NC(=O)N2CCc3c(nc4cc(-c5ccccc5)[nH]n4c3=O)C2)c(OC)c1 -3.62%, CC(=O)N1CCN(c2cc(-c3noc([C@@H]4CCCN4Cc4ccccc4)n3)ccn2)CC1 3.97% [at 57.5 µM], Cc1ccc(C(=O)N2CCCCCNC(=O)[C@@H]3CCC[C@@H]32)s1 8.13%, CCN1CCCCC12Cc1ccccc1CN(S(=O)(=O)c1ccccc1)C2 (stereo not drawn) -0.392%, COc1ccccc1-c1ccnc(N[C@H]2CO[C@H]3[C@@H]2OC[C@@H]3NS(=O)(=O)c2cccs2)n1 9.02%, CC(=O)NCc1cn[nH]c1-c1ccc(Cl)cc1 -1.99%, O=C(c1n[nH]c2ccccc12)N1CCC2(CC1)N(c1ccccc1)C(=O)CS2=O (stereo not drawn) 5.32%, CN(C)CCN(C)[C@H]1[C@@H]2OC[C@@H](O2)[C@@H](NC(=O)Nc2cccc(C#N)c2)[C@@H]1O -1.04% [at 57.5 µM], CCc1nnc([C@@H]2CC(F)(F)CN2C(=O)c2ocnc2C)o1 7.8%, O=C(CCc1ccccc1)NCC1CCCCC(=O)N1 (stereo not drawn) 21.4%, Cc1cc(C)n(CC(=O)N2CCC3(CC2)CC(CN2CCOCC2)N(C)C3)n1 (stereo not drawn) -1.29%, CO[C@H](C)[C@H](N)C(=O)N1CCC(c2cc(Cc3ccccc3)[nH]n2)CC1 8.25%, CC1=NOC2(CCN(Cc3ccncc3)CC2)C1 -1.02% [at 57.5 µM], COc1ccccc1C(=O)N1CCC(C(=O)N2CCC(N3Cc4ccccc4C3=O)CC2)CC1 15.7%, Cc1ccc(S(=O)(=O)N2CCCCCC2c2nnc(C)o2)c(C)c1 (stereo not drawn) 8.31%, COc1ccc(C(=O)NC2CCN(c3nc4ncccc4o3)CC2)cc1 6.51%, CN(Cc1ccc(F)cc1)S(=O)(=O)c1cccs1 0.177% [at 57.5 µM], Cc1ccccc1C(=O)N1CCC2(CC1)CC(c1cccc(C(F)(F)F)c1)=NO2 51.9%, CCCCS(=O)(=O)NC1CCc2nn(CC3CC3)c(=O)n2CC1 (stereo not drawn) 0.295%, CC(O)c1cc2n(n1)CCCN(c1ncnc3ccsc13)C2 (stereo not drawn) 54.7%, Cc1ccc(CN2CC[C@H](c3nnc(-c4ccco4)o3)C2)o1 13.1% [at 57.5 µM], CC(C)N1CCN(C(=O)CC2=C3CCCCC3NC2=O)CC1 (stereo not drawn) 3.89%, CCCNC(=O)N1CCCCC1c1n[nH]c(C)n1 (stereo not drawn) 9.05%, COC(=O)c1cc2n(n1)CCCN(C(=O)COc1ccc(C)c(C)c1)C2 -0.546%, NC(=O)c1cccc(CC2CCN(C(=O)c3ccnc(-n4cnnc4)c3)C2)c1 (stereo not drawn) 1.2%, COCCn1c(=O)c2c(n1Cc1ccccc1)CN(C(=O)c1cc3ccccc3[nH]1)CC2 13.5% [at 57.5 µM], CC(C)C1=NOC2(CCN(C(=O)c3ccccc3F)CC2)C1 -0.0545% [at 57.5 µM], CCc1cc(=O)n(CC(=O)Nc2ccccc2OC)c(N2CCOCC2)n1 10.1%, CC(C)N1C[C@@H](C(=O)O)C[C@H](C(=O)Nc2ccc(F)cc2)C1 -3.69%, Cn1ccnc1CN1C(=O)CO[C@H]2CN(C3CCCCC3)C[C@H]21 -9.79% [at 57.5 µM], CCc1nc(-c2ccc(OC3CCN(S(=O)(=O)Cc4ccccc4)C3)cc2)no1 (stereo not drawn) 1.08%, CC(=O)N1CCCN(c2ncnc3c2CN(C2CCCCC2)C(=O)CN3C)CC1 0.617%, NS(=O)(=O)c1ccc(-n2nc(C3CCOC3)nc2C2CCC2)cc1 (stereo not drawn) -1.95%, COC(=O)c1ccc(NCC2=CC(C)(C)COc3ccc(OC)cc32)cc1 20.8%, CN1CCN(C(=O)c2cncc(N[C@H]3C[C@@H]4OCC[C@H]34)n2)CC1 3.03%, COc1ccccc1N1CCCc2ncc(C(=O)N3CCN(C(C)=O)CC3)cc21 13.8% [at 57.5 µM], COc1ccccc1N1CCN([C@@H]2[C@H](O)[C@H](CO)O[C@@H]2CN(Cc2ccc(F)cc2)Cc2ccc(F)cc2)CC1 21.2%, CN(Cc1ccc(F)cc1)C(=O)c1cccc(Cl)c1 12.3% [at 57.5 µM], CN1C[C@@H]2CC[C@H](CC1=O)N2C(=O)c1cnn2cc(CCO)cnc12 27%, COc1ccccc1C(C)N(C)C(=O)c1cccc(CCC(C)(C)O)c1 (stereo not drawn) -11.8%, O=C(NCCN1CCCC1)c1c(OCC2CC2)cc(=O)n2c1CCOCC2 1.9%, COc1ccc(CCN2Cc3cc(NC(=O)Cc4cccs4)ccc3OCC2=O)cc1 0.749%, Cc1cc(CNC(=O)[C@@H]2CCC[C@@H](NC(=O)C3CCOCC3)CN(C)C(=O)C2)no1 76.9% [at 57.5 µM], O=c1c2nc(Nc3ccc(C(F)(F)F)cc3)ccc2ncn1Cc1ccccn1 16.4% [at 57.5 µM], COC(=O)[C@H]1CCCN1C(=O)[C@@H]1C[C@H](NC(=O)Nc2ccc(F)cc2F)CN1C(=O)CSC -2.79%, O=C1Nc2ccccc2C12CN([S+](=O)([O-])c1ccccc1)C2 0.414%, COc1ccc(C[C@H](NC(=O)[C@@H]2C[C@H](NC(=O)Nc3ccc(F)cc3F)CN2C(=O)CC(C)(C)C)C(N)=O)cc1 -3.76%, CN(Cc1cnn(C)c1)C(=O)c1csc2nc(-c3cccc(C(F)(F)F)c3)cn12 0.253%, CCC(=O)NCC1Cn2cccc2C(=O)N1Cc1ccccc1 (stereo not drawn) -5.65%, Cc1cc(C)c(S(=O)(=O)NCCn2c(C)cnc2C2CCC2)cc1C -0.853%, COc1ccc(C(=O)N2CCCCCNC(=O)[C@@H]3CCC[C@@H]32)cn1 2.51%, O=C(Cc1cccc(C(F)(F)F)c1)N[C@H]1CCOC[C@H]1C1CCOCC1 9.72%, COc1ccc(F)c(-c2nc(CN(C)CC3(CO)CC3)c(C)o2)c1 15.7%, OC[C@H]1CCN(c2ccnc3c(C(F)(F)F)cccc23)C[C@H]1O 12.7%, CN(C)[C@@H]1CN(C(=O)c2cc3ccccc3[nH]2)CC[C@@H]1CO 20.1%, CN(C/C=C/c1ccccc1)C(=O)C1CCC(=O)N(Cc2cccc(F)c2)C1 (stereo not drawn) 38.1%, COc1ccc(-c2cn(C)c(=O)n3cc(CN4CCNC(=O)C4)nc23)cn1 -6.58% [at 57.5 µM], COCCC1(NC(=O)c2ccccc2)CCN(Cc2ccc(F)cc2F)CC1 1.52%, Cc1cc(C)n(CCC(=O)N2CCC(Cc3noc(C4CC4)n3)C2)n1 (stereo not drawn) -2.04%, O=C(C1CCCC1)N1CCC(n2cnnc2C2CC2)CC1 -1.2%, COc1nccc(N2CCC(CC(=O)N3CCN(C(C)=O)CC3)CC2)n1 6.15%
